PubChem BioAssay AID1508597 – Cure First, 2020
Aim: 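Survival screen with siRNA in ovarian cancer cells derived from patients, with or without rucaparib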 (primary screen). Cells: human ovarian carcinoma lines grown from tumours: OCI-P5x (papillary serous) and OCI-C5x (clear cell). Reagent: siRNA pool against human genes, 1.25 pmol siRNA per well. Duration: 72 h or 96 h, depending on the cell culture. Challenge: rucaparib 20 µM (about IC30) or vehicle, present until read-out. Measurement: 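ATP luminescence measured at 72 or 96 h according to the culture, then normalised and expressed as percent viability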. Scale: viability, normalised: higher = more viable cells remaining. Call rule: 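Active when normalised viability falls below 80 percent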. Meaning of the calls: active = viability under 80%; inactive = viability 80% or more.
This is one part, drawn at random, of about 2,100 reagents. 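Calls flag viability under 80% in either arm, not effects specific to rucaparib; the reference for percent is not stated.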 Unmarked entries are inactive. Not given: the 100% reference.

{"gene":"ESRRB","rucaparib or vehicle":"Rucaparib","cell line":"OCI-C5x (clear cell)","technical replicate":"1","viability, normalised (%)":"67.9 (active)"}
{"gene":"ESRRB","rucaparib or vehicle":"Rucaparib","cell line":"OCI-C5x (clear cell)","technical replicate":"2","viability, normalised (%)":"56.8 (active)"}
{"gene":"ESRRB","rucaparib or vehicle":"Rucaparib","cell line":"OCI-C5x (clear cell)","technical replicate":"3","viability, normalised (%)":"61.4 (active)"}
{"gene":"ESRRB","rucaparib or vehicle":"Rucaparib","cell line":"OCI-P5x (serous)","technical replicate":"1","viability, normalised (%)":"75.1 (active)"}
{"gene":"ESRRB","rucaparib or vehicle":"Rucaparib","cell line":"OCI-P5x (serous)","technical replicate":"2","viability, normalised (%)":91.1}
{"gene":"ESRRB","rucaparib or vehicle":"Rucaparib","cell line":"OCI-P5x (serous)","technical replicate":"3","viability, normalised (%)":90.6}
{"gene":"ESRRB","rucaparib or vehicle":"Vehicle","cell line":"OCI-C5x (clear cell)","technical replicate":"1","viability, normalised (%)":"59.3 (active)"}
{"gene":"ESRRB","rucaparib or vehicle":"Vehicle","cell line":"OCI-C5x (clear cell)","technical replicate":"2","viability, normalised (%)":"77.9 (active)"}
{"gene":"ESRRB","rucaparib or vehicle":"Vehicle","cell line":"OCI-C5x (clear cell)","technical replicate":"3","viability, normalised (%)":"71 (active)"}
{"gene":"ESRRB","rucaparib or vehicle":"Vehicle","cell line":"OCI-P5x (serous)","technical replicate":"1","viability, normalised (%)":"71.4 (active)"}
{"gene":"ESRRB","rucaparib or vehicle":"Vehicle","cell line":"OCI-P5x (serous)","technical replicate":"2","viability, normalised (%)":"75.5 (active)"}
{"gene":"ESRRB","rucaparib or vehicle":"Vehicle","cell line":"OCI-P5x (serous)","technical replicate":"3","viability, normalised (%)":85.8}
{"gene":"MED23","rucaparib or vehicle":"Rucaparib","cell line":"OCI-C5x (clear cell)","technical replicate":"1","viability, normalised (%)":"39.8 (active)"}
{"gene":"MED23","rucaparib or vehicle":"Rucaparib","cell line":"OCI-C5x (clear cell)","technical replicate":"2","viability, normalised (%)":"30.8 (active)"}
{"gene":"MED23","rucaparib or vehicle":"Rucaparib","cell line":"OCI-C5x (clear cell)","technical replicate":"3","viability, normalised (%)":"37.7 (active)"}
{"gene":"MED23","rucaparib or vehicle":"Rucaparib","cell line":"OCI-P5x (serous)","technical replicate":"1","viability, normalised (%)":"45 (active)"}
{"gene":"MED23","rucaparib or vehicle":"Rucaparib","cell line":"OCI-P5x (serous)","technical replicate":"2","viability, normalised (%)":"44.5 (active)"}
{"gene":"MED23","rucaparib or vehicle":"Rucaparib","cell line":"OCI-P5x (serous)","technical replicate":"3","viability, normalised (%)":"45.4 (active)"}
{"gene":"MED23","rucaparib or vehicle":"Vehicle","cell line":"OCI-C5x (clear cell)","technical replicate":"1","viability, normalised (%)":"40.8 (active)"}
{"gene":"MED23","rucaparib or vehicle":"Vehicle","cell line":"OCI-C5x (clear cell)","technical replicate":"2","viability, normalised (%)":"51.1 (active)"}
{"gene":"MED23","rucaparib or vehicle":"Vehicle","cell line":"OCI-C5x (clear cell)","technical replicate":"3","viability, normalised (%)":"51.1 (active)"}
{"gene":"MED23","rucaparib or vehicle":"Vehicle","cell line":"OCI-P5x (serous)","technical replicate":"1","viability, normalised (%)":"57.3 (active)"}
{"gene":"MED23","rucaparib or vehicle":"Vehicle","cell line":"OCI-P5x (serous)","technical replicate":"2","viability, normalised (%)":"65.2 (active)"}
{"gene":"MED23","rucaparib or vehicle":"Vehicle","cell line":"OCI-P5x (serous)","technical replicate":"3","viability, normalised (%)":"61.5 (active)"}
{"gene":"HMG20A","rucaparib or vehicle":"Rucaparib","cell line":"OCI-C5x (clear cell)","technical replicate":"1","viability, normalised (%)":"61.3 (active)"}
{"gene":"HMG20A","rucaparib or vehicle":"Rucaparib","cell line":"OCI-C5x (clear cell)","technical replicate":"2","viability, normalised (%)":"57.7 (active)"}
{"gene":"HMG20A","rucaparib or vehicle":"Rucaparib","cell line":"OCI-C5x (clear cell)","technical replicate":"3","viability, normalised (%)":"69.7 (active)"}
{"gene":"HMG20A","rucaparib or vehicle":"Rucaparib","cell line":"OCI-P5x (serous)","technical replicate":"1","viability, normalised (%)":"72.2 (active)"}
{"gene":"HMG20A","rucaparib or vehicle":"Rucaparib","cell line":"OCI-P5x (serous)","technical replicate":"2","viability, normalised (%)":"70.9 (active)"}
{"gene":"HMG20A","rucaparib or vehicle":"Rucaparib","cell line":"OCI-P5x (serous)","technical replicate":"3","viability, normalised (%)":"58.9 (active)"}
{"gene":"HMG20A","rucaparib or vehicle":"Vehicle","cell line":"OCI-C5x (clear cell)","technical replicate":"1","viability, normalised (%)":"61.1 (active)"}
{"gene":"HMG20A","rucaparib or vehicle":"Vehicle","cell line":"OCI-C5x (clear cell)","technical replicate":"2","viability, normalised (%)":"45.6 (active)"}
{"gene":"HMG20A","rucaparib or vehicle":"Vehicle","cell line":"OCI-C5x (clear cell)","technical replicate":"3","viability, normalised (%)":"78.5 (active)"}
{"gene":"HMG20A","rucaparib or vehicle":"Vehicle","cell line":"OCI-P5x (serous)","technical replicate":"1","viability, normalised (%)":"77.3 (active)"}
{"gene":"HMG20A","rucaparib or vehicle":"Vehicle","cell line":"OCI-P5x (serous)","technical replicate":"2","viability, normalised (%)":94.2}
{"gene":"HMG20A","rucaparib or vehicle":"Vehicle","cell line":"OCI-P5x (serous)","technical replicate":"3","viability, normalised (%)":95.4}
